We go through two molecules from PMC6700799.

Protein sequences, listed by entry. Tags and fused reporters are not part of them.
UniProt P09429: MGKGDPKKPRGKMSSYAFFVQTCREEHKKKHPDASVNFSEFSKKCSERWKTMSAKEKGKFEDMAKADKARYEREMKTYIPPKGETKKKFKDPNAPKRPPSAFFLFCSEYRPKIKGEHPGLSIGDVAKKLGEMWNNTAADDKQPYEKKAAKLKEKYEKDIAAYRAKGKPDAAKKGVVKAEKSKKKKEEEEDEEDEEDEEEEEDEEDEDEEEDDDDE

Test [1] addresses T1, SEPT9 protein (human (endogenous in HeLa)) (UniProt Q9UHD8).
T1 sequence: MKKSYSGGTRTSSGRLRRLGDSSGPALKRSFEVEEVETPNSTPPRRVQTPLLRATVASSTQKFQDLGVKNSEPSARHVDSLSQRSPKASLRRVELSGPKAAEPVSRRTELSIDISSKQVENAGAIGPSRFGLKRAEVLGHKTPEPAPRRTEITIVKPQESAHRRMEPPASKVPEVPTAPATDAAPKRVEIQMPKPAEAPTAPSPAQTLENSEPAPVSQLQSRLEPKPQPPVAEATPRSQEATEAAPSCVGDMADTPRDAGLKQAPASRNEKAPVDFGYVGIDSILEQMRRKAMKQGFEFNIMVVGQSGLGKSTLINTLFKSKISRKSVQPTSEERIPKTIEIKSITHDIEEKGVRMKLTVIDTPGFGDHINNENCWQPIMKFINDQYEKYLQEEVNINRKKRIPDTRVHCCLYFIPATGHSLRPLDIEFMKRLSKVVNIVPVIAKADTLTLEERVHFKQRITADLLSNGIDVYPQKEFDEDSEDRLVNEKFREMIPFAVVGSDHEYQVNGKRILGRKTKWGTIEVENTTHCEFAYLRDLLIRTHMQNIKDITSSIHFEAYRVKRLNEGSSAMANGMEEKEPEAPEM
Description: co-IP; nuclear extracts from HeLa, endogenous proteins; IP with 5 ug antibody and 500 ug protein, protein A+G beads, Western blotting.

Test [2] deals with HMGB1 protein (human (endogenous in HeLa and CaSki)) (UniProt P09429). The description is as above.

Results are given in words; binding and its absence hold for the method and conditions named. In cells and extracts the contact can be indirect. Some results given as binding are weak or reduced against the parent protein; the word gives no strength.

Regarding “HMGB1 protein (from UniProt P09429 1-215)”, in test [1], the binding entry is “binds”.

B1: RB protein (protein, UniProt P06400 1-928)
chain: MPPKTPRKTAATAAAAAAEPPAPPPPPPPEEDPEQDSGPEDLPLVRLEFEETEEPDFTALCQKLKIPDHVRERAWLTWEKVSSVDGVLGGYIQKKKELWGICIFIAAVDLDEMSFTFTELQKNIEISVHKFFNLLKEIDTSTKVDNAMSRLLKKYDVLFALFSKLERTCELIYLTQPSSSISTEINSALVLKVSWITFLLAKGEVLQMEDDLVISFQLMLCVLDYFIKLSPPMLLKEPYKTAVIPINGSPRTPRRGQNRSARIAKQLENDTRIIEVLCKEHECNIDEVKNVYFKNFIPFMNSLGLVTSNGLPEVENLSKRYEEIYLKNKDLDARLFLDHDKTLQTDSIDSFETQRTPRKSNLDEEVNVIPPHTPVRTVMNTIQQLMMILNSASDQPSENLISYFNNCTVNPKESILKRVKDIGYIFKEKFAKAVGQGCVEIGSQRYKLGVRLYYRVMESMLKSEEERLSIQNFSKLLNDNIFHMSLLACALEVVMATYSRSTSQNLDSGTDLSFPWILNVLNLKAFDFYKVIESFIKAEGNLTREMIKHLERCEHRIMESLAWLSDSPLFDLIKQSKDREGPTDHLESACPLNLPLQNNHTAADMYLSPVRSPKKKGSTTRVNSTANAETQATSAFQTQKPLKSTSLSLFYKKVYRLAYLRLNTLCERLLSEHPELEHIIWTLFQHTLQNEYELMRDRHLDQIMMCSMYGICKVKNIDLKFKIIVTAYKDLPHAVQETFKRVLIKEEEYDSIIVFYNSVFMQRLKTNILQYASTRPPTLSPIPHIPRSPYKFPSSPLRIPGGNIYISPLKSPYKISEGLPTPTKMTPRSRILVSIGESFGTSEKFQKINQMVCNSDRVLKRSAEGSNPPKPLKKLRFDIEGSDEADGSKHLPGESKFQQKLAEMTSTRTRMQKQKMNDSMDTSNKEEK
With B1, the binding entry in test [2] is “binds”.
